{"source": "PubChem BioAssay AID743121 (NCATS, 2013)", "test": "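Knock-downs that sensitise breast cancer cells to camptothecin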 (primary screen)", "cells": "MDA-MB-231 cells, a human breast cancer line", "reagents": "single siRNA against human genes, 20 nM siRNA (0.8 pmol per well)", "timing": "120 h (drug added 48 h after transfection, read 72 h later)", "treatment": "camptothecin 20 nM (about EC30) for 72 h; vehicle 0.1% DMSO in parallel plates", "measured": "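Cell viability by ATP luminescence (CellTiter-Glo) as % of non-targeting siRNA wells, and the log2 ratio of viability without drug over viability with camptothecin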", "reading the numbers": "log2 vehicle/camptothecin viability: higher = stronger sensitisation to camptothecin", "hit rule": "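Active genes have an RSA gene-level p-value below 0.001, computed from the ratios of their separate siRNAs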", "note": "The deposit covers about 26,000 reagents; this is a random part of them. Over the whole deposit, 167 (0.63%) got an active call. 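Calls are per gene from RSA p-values that are not deposited; an individual active-marked siRNA can sensitise only weakly.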 Entries without a mark were called inactive. Reagents against one gene are numbered here. Not all columns of the deposit are shown."}
{"Gene": "NPY6RP", "reagent": 1, "log2 vehicle/camptothecin viability": -0.292}
{"Gene": "NPY6RP", "reagent": 2, "log2 vehicle/camptothecin viability": 0.173}
{"Gene": "NPY6RP", "reagent": 3, "log2 vehicle/camptothecin viability": -0.236}
{"Gene": "NPY6RP", "reagent": 4, "log2 vehicle/camptothecin viability": -0.374}
{"Gene": "MAP3K13", "reagent": 1, "log2 vehicle/camptothecin viability": -0.0726}
{"Gene": "MAP3K13", "reagent": 2, "log2 vehicle/camptothecin viability": 0.31}
{"Gene": "MAP3K13", "reagent": 3, "log2 vehicle/camptothecin viability": -0.198}
{"Gene": "MAP3K13", "reagent": 4, "log2 vehicle/camptothecin viability": -0.361}
{"Gene": "SND1", "reagent": 1, "log2 vehicle/camptothecin viability": 0.298}
{"Gene": "SND1", "reagent": 2, "log2 vehicle/camptothecin viability": 0.229}
{"Gene": "SND1", "reagent": 3, "log2 vehicle/camptothecin viability": -0.157}
{"Gene": "SND1", "reagent": 4, "log2 vehicle/camptothecin viability": -0.443}
{"Gene": "MMP26", "reagent": 1, "log2 vehicle/camptothecin viability": -0.411}
{"Gene": "MMP26", "reagent": 2, "log2 vehicle/camptothecin viability": -0.311}
{"Gene": "MMP26", "reagent": 3, "log2 vehicle/camptothecin viability": -0.133}
{"Gene": "MMP26", "reagent": 4, "log2 vehicle/camptothecin viability": 0.368}
{"Gene": "PLPPR2", "reagent": 1, "log2 vehicle/camptothecin viability": -0.307}
{"Gene": "PLPPR2", "reagent": 2, "log2 vehicle/camptothecin viability": 1.24}
{"Gene": "PLPPR2", "reagent": 3, "log2 vehicle/camptothecin viability": -0.215}
{"Gene": "PLPPR2", "reagent": 4, "log2 vehicle/camptothecin viability": -0.16}
{"Gene": "ZIC3", "reagent": 1, "log2 vehicle/camptothecin viability": -0.125}
{"Gene": "ZIC3", "reagent": 2, "log2 vehicle/camptothecin viability": -0.307}
{"Gene": "ZIC3", "reagent": 3, "log2 vehicle/camptothecin viability": -0.261}
{"Gene": "ZIC3", "reagent": 4, "log2 vehicle/camptothecin viability": 0.14}
{"Gene": "TRIM6", "reagent": 1, "log2 vehicle/camptothecin viability": -0.698}
{"Gene": "TRIM6", "reagent": 2, "log2 vehicle/camptothecin viability": -0.0275}
{"Gene": "TRIM6", "reagent": 3, "log2 vehicle/camptothecin viability": 0.207}
{"Gene": "TRIM6", "reagent": 4, "log2 vehicle/camptothecin viability": -0.142}
{"Gene": "EED", "reagent": 1, "log2 vehicle/camptothecin viability": -0.41}
{"Gene": "EED", "reagent": 2, "log2 vehicle/camptothecin viability": -0.224}
{"Gene": "EED", "reagent": 3, "log2 vehicle/camptothecin viability": 0.0554}
{"Gene": "EED", "reagent": 4, "log2 vehicle/camptothecin viability": -0.0725}
{"Gene": "MAPK7", "reagent": 1, "log2 vehicle/camptothecin viability": -0.377}
{"Gene": "MAPK7", "reagent": 2, "log2 vehicle/camptothecin viability": -0.314}
{"Gene": "MAPK7", "reagent": 3, "log2 vehicle/camptothecin viability": -0.164}
{"Gene": "MAPK7", "reagent": 4, "log2 vehicle/camptothecin viability": -0.184}
